In US10184153B2, “System and method for diagnosis and treatment of neuropsychiatric disorders” (The Research Foundation For Mental Hygiene, Inc., priority 2006, dated 2019):
At least one structure is not confirmed: it was looked up by name or label, or the drawing left a doubt.

Legend:
[1] = system: GCH1; conditions: Li-induced inositol depletion; cited from earlier work
[2] = system: plasma biopterin; assay: Fasting plasma total biopterin in psychiatric patients, model with lithium use as covariate; assay type: in vivo, human; conditions: SZ, SaD and BpD patients; Li (yes/no), Phe and ethnicity as covariates; significant main effect
[3] = system: GCH1; assay: Leukocyte GCH1 gene expression (Affymetrix microarrays) in BpD subjects with or without Li treatment; assay type: in vivo, human; conditions: 17 BpD subjects, separated by genotype and Li treatment; results not significant

[Li] [Li, Lithium]
GCH1 mRNA in the rat brain after Li administration [1]: GCH1 mRNA rise
effect of Li treatment on plasma biopterin levels [2]: increases plasma biopterin levels
leukocyte GCH1 expression, Li treated vs untreated subjects [3]: higher expression levels
